Among the data in patent publication US20050153395A1, “Unique integrin binding site in connective tissue growth factor (CTGF)” (CHILDREN'S HOSPITAL INC., priority 2003, published 2005) are binding values, retold here.

For assay [1], the target named is integrin α5β1 (purified). Put plainly: co-immunoprecipitation with rabbit anti-CTGF, blot with anti-integrin α5β1.
Assay [2] deals with integrin α5β1 (purified). Put plainly: solid phase ELISA, coated ligand (2 µg/ml), purified α5β1. In general terms: An ELISA detects its analyte on a solid surface through an enzyme-linked reagent.
Assay [3] concerns the target integrin αvβ3 (purified, human) (human). Put plainly: co-immunoprecipitation with rabbit anti-CTGF, blot with anti-αvβ3.
For assay [4] the target is unchanged. As to the kind of experiment: solid phase ELISA, coated ligand, purified αvβ3.
Assay [5] has as its target integrin α5β1 (purified). Put plainly: PSC adhesion assays and solid phase ELISA.
The target in assay [6] is integrin α5β1 (purified). As to the kind of experiment: solid phase competition ELISA, 35 µM peptide; competitor coated CTGF4 or fibronectin.
Assay [7] addresses integrin α5β1 (purified). Put plainly: cell-free binding assay (Example 11).
Assay [8] deals with integrin α5β1 (purified). Put plainly: solid phase competition ELISA.
For assay [9], the target named is integrin αvβ3 (purified, human) (human). As to the kind of experiment: solid phase ELISA.
Assay [10] has the same target. Put plainly: cell-free binding assay (Example 4).
Assay [11] shares this target. As to the kind of experiment: solid phase competition ELISA; αvβ3 pre-incubated with peptide; competitor coated CTGF4.
The target of assay [12] is integrin α5β1 (purified). As to the kind of experiment: co-immunoprecipitation and solid phase ELISA.
In assay [13] the target is integrin α5β1 (purified). Put plainly: solid phase ELISA, coated CTGF4 (2 µg/ml), α5β1 1 µg/ml.
The target in assay [14] is integrin α5β1 (purified). As to the kind of experiment: solid phase ELISA, coated mutant (8 µg/ml), α5β1 1 µg/ml.

Residue numbers refer to the chain shown, from its start. Numbers in names are those of the source. No constants are given. Whether binding was seen depends on the method and setting. Binding can be weak; no strength is given. For part of these data: In cells and extracts the contact can be indirect.

B1: CTGF3-4 (16-20 kDa CTGF, modules 3 and 4) (ligand)
chain: AYRLEDTFGPDPTMIRANCLVQTTEWSACSKTCGMGISTRVTNDNASCRLEKQSRLCMVRPCEADLEENIKKGKKCIRTPKISKPIKFELSGCTSMKTYRAKFCGVCTDGRCCTPHRTTTLPVEFKCPDGEVMKKNMMFIKTCACHYNCPGDNDIFESLYYRKMYGDMA
As for B1, the binding result (in the assay with integrin α5β1 (purified) [1]; with integrin α5β1 (purified) [2]; in assay [3]; in assay [4]) was “binds” in each case.
In the case of GVCTDGR [CTGF[285-291] peptide GVCTDGR], the binding result with integrin α5β1 (purified) [5], with integrin α5β1 (purified) [6], in the assay with integrin α5β1 (purified) [7] and in the assay with integrin α5β1 (purified) [8] was “binds” throughout.
Consider IRTPKISKPIKFELSG [CTGF[257-272] peptide …], for which the binding entry in assay [9], in assay [10] and in assay [11] was “binds” each time.

B2: CTGF4 (10 kDa CTGF, module 4 alone, residues 247-349 of SEQ ID NO: 1) (ligand)
chain: EENIKKGKKCIRTPKISKPIKFELSGCTSMKTYRAKFCGVCTDGRCCTPHRTTTLPVEFKCPDGEVMKKNMMFIKTCACHYNCPGDNDIFESLYYRKMYGDMA
B2: the binding result (with integrin α5β1 (purified) [12]; with integrin α5β1 (purified) [1]; with integrin α5β1 (purified) [13]; with integrin α5β1 (purified) [2]; in assay [3]; in assay [4]) was “binds” throughout.

B3: CTGF4 mutant M2 (K261A, I262A, S263A, K264A) (ligand)
chain: B2 chain with K15A, I16A, S17A, K18A
Consider B3, for which, in the assay with integrin α5β1 (purified) [14], the binding entry is on record as “binds”.

B4: CTGF4 mutant M3 (P265A, I266A, K267A, F268A) (ligand)
chain: B2 chain with P19A, I20A, K21A, F22A
As for B4, in the assay with integrin α5β1 (purified) [14], the binding result is listed as “binds”.

B5: CTGF4 mutant M4 (E269A, L270A, S271A, G272A) (ligand)
chain: B2 chain with E23A, L24A, S25A, G26A
For the molecule B5, the binding result in the assay with integrin α5β1 (purified) [14] was “binds”.

B6: CTGF4 mutant M1 (I257A, R258A, T259A, P260A) (ligand)
chain: B2 chain with I11A, R12A, T13A, P14A
Consider B6, for which the binding entry with integrin α5β1 (purified) [14] is listed as “binds”.
